Data as given in paper PMC11388081.

Chains of the proteins cited; added tags and fusions are not shown. Lines headed by an entry give the natural chain unless they say otherwise; changes in a name come on top.
UniProt P11717: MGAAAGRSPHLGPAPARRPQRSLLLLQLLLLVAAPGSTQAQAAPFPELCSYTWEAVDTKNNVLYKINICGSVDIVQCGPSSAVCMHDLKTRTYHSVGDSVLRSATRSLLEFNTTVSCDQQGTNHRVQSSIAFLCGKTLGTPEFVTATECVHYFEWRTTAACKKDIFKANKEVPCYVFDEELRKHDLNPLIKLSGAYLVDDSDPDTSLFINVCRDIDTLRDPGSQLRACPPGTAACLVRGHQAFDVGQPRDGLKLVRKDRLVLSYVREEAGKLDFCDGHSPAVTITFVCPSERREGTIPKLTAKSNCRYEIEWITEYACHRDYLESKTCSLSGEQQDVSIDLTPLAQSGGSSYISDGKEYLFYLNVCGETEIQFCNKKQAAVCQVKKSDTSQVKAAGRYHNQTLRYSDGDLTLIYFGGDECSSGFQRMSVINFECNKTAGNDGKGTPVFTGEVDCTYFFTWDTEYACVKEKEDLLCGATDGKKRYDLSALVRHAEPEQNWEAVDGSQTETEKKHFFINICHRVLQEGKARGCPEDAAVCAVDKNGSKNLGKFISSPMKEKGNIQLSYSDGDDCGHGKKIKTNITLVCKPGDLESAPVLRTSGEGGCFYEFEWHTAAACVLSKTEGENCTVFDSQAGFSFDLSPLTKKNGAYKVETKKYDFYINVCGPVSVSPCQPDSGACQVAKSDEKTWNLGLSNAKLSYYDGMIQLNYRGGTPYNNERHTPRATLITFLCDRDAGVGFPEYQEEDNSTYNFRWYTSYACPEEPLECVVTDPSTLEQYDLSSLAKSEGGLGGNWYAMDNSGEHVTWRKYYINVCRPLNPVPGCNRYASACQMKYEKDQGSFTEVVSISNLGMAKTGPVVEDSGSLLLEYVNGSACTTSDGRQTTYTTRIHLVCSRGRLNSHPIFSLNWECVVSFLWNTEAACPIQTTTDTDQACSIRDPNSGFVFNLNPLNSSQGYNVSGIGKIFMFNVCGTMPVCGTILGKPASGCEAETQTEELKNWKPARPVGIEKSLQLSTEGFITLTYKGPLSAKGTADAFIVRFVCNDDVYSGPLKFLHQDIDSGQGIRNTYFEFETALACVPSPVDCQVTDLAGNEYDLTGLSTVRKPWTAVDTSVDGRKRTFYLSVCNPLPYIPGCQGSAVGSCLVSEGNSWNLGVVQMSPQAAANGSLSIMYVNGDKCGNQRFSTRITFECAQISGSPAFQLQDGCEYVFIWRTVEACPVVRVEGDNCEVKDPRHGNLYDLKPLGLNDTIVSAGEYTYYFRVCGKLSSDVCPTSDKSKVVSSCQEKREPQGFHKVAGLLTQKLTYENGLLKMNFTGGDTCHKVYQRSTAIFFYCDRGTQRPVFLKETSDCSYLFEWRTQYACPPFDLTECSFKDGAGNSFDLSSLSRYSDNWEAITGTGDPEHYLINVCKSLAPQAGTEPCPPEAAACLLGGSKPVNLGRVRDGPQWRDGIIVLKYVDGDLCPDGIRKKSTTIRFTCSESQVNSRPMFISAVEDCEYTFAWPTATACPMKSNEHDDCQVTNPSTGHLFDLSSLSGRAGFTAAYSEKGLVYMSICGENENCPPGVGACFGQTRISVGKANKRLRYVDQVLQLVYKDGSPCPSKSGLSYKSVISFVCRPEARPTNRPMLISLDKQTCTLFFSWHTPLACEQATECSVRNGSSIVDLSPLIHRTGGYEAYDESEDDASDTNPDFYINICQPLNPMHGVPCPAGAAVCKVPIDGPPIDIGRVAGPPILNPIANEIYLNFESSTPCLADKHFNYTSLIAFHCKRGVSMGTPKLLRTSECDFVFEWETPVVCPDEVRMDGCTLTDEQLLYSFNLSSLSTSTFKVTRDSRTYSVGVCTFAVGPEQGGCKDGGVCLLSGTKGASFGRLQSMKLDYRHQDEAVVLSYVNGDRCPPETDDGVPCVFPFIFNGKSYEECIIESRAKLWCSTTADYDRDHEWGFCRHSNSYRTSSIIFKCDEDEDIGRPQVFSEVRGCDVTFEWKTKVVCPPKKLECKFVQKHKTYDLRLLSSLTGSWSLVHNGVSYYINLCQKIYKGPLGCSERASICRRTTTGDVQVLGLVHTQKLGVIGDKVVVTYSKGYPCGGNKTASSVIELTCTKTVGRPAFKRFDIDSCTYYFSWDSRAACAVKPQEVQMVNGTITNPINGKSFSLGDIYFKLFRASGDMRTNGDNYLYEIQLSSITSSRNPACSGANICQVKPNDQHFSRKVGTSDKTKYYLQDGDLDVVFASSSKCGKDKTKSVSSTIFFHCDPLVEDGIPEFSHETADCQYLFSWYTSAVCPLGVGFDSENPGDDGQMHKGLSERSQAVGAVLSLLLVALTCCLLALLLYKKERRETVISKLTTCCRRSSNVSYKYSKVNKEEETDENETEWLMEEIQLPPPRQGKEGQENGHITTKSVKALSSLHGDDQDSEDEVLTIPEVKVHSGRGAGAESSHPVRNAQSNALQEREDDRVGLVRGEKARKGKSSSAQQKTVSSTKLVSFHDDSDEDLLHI

Assays:
GST-M6PR = assay: MST; conditions: 5'-phosphate on strand 1 (T4 DNA ligase step stated), MST: 5 nM Cy5-LYTAC, 20 mM Tris-HCl pH 8.5, 20 mM KCl, 20 mM CaCl2, 0.1% Tween 20, 10 min, temperature not stated, protein in a lysate after overexpression, protein details: GST
[1] = test system: VEGF (HZ-1038, Proteintech); assay: MST; conditions: 20 mM CaCl2, 5'-phosphate on strand 1 (T4 DNA ligase step stated), MST: 5 nM Cy5-LYTAC, 20 mM Tris-HCl pH 8.5, 20 mM KCl, 20 mM CaCl2, 0.1% Tween 20, 10 min, temperature not stated, commercial protein
M6PR (cell lysate) = M6PR (cell lysate) (UniProt P11717); assay: streptavidin pull-down; conditions: DPBS-Mg buffer; 5'-phosphate on strand 1 (T4 DNA ligase step stated); pulldown: cell lysate with LYTAC in DPBS-Mg, 4 C, 4 h; protein in an extract
VEGF (cell lysate) = assay: streptavidin pull-down; conditions: DPBS-Mg buffer; 5'-phosphate on strand 1 (T4 DNA ligase step stated); pulldown: cell lysate with LYTAC in DPBS-Mg, 4 C, 4 h; protein in an extract

Row | Sequence | binding result (GST-M6PR; Kd only in figure, 20 mM CaCl2) | binding result ([1]; Kd only in figure) | binding result (M6PR (cell lysate)) | binding result (VEGF (cell lysate)) | binding result (GST-M6PR; binds, weaker than V5 and V6, 20 mM CaCl2) | binding result ([1]; minimal binding)
1 | CCCCCACACGTAAATCAGTCATAGGGCGCGTAGATGACGAGCAGTCCTAACATCGTTTAGGAC / TATGACTGATTTACGTGTGGGGGGCCCGTCTTCCAGACAAGAGTGCAGGGC [V6 (M6PR-A / VEGF-A3 LYTAC)] | binds | binds | binds | binds | – | –
2 | CCCCCACACGTAAATCAGTCATAGGGCGCGTAGATGACGAGCAGTCCTAACATCGTTTAGGAC / TATGACTGATTTACGTGTGGGGGTGGACTGGGTGGGTACCC [V4 (M6PR-A / VEGF-A1 LYTAC)] | – | – | – | – | binds more weakly | binds more weakly
3 | CCCCCACACGTAAATCAGTCATAGGGCGCGTAGATGACGAGCAGTCCTAACATCGTTTAGGAC / TATGACTGATTTACGTGTGGGGGTGTGGGGGTGGACGGGCCGGGTAGA [V5 (M6PR-A / VEGF-A2 LYTAC)] | binds | – | binds | binds | – | –

For part of these data: The comparison behind a weaker result is the experiment's own reference, which may not be listed here. For at least one entry, the source does not settle the construct or the ends of the probe. For part of these data: Where cells or extracts were used, other partners may take part. For part of these data: At least one verdict was read from the data and is not stated in words by the source.
